Values from PubChem BioAssay AID1259331 (Drosophila RNAi Screening Center, 2017)
Here is one part, drawn at random, of about 3,100 deposited reagents. Over the whole deposit, 126 (4.1%) are marked active. 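Calls are per reagent; zinc was so toxic that few knock-downs lowered ATP further, so most hits raise ATP.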 Raw values are not corrected between plates. Reagents against one gene are numbered here. Names joined by + are all predicted targets of the reagent. Reagent sequences are not shown. Not given: the amount of reagent.

Aim: 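Genes whose knock-down changes cell survival under toxic zinc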 (primary screen)
Cells: Drosophila S2R+ cells
Reagents: long dsRNA against Drosophila genes
Timing: 5 days (4 days knock-down, then 1 day zinc)
Challenge: zinc chloride at 15 mM final level for 1 day
Read-out: 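Luminescent ATP assay standing in for viability; Z score is the mean over three replicate plates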
Scale: mean Z score: higher = more ATP than other wells, better survival under zinc; ATP luminescence: higher = more ATP, more viable cells
Rule for the call: 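Hit when the absolute Z score is greater than 1.5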
Calls: active = hit, ATP up or down; inactive = not a hit

no.	gene	reagent	mean Z score	ATP luminescence, replicate 1	ATP luminescence, replicate 2	outcome
1	Ac13E	1	0.414	76393	69352	inactive
2	Ac13E	2	-0.331	56705	49778	inactive
3	CG10804	1	-0.14	43999	42525	inactive
4	CG10804	2	-0.0362	48217	51857	inactive
5	Gr39a	1	-0.897	31330	34279	inactive
6	Gr39a	2	-0.229	38393	41925	inactive
7	Gr39a	3	-0.195	59980	51338	inactive
8	dome	1	-0.42	39130	41222	inactive
9	dome	2	0.189	54442	47686	inactive
10	dome	3	0.0347	51749	46588	inactive
11	Nrx-1	1	-0.232	42971	41736	inactive
12	Tsp42A	1	0.339	1.02e5	78187	inactive
13	Tsp42A	2	-0.372	51252	55659	inactive
14	Gr58c	1	0.446	60083	43914	inactive
15	cue	1	-0.504	30850	26805	inactive
16	cue	2	0.335	55059	58334	inactive
17	SPoCk	1	-0.282	71067	53841	inactive
18	SPoCk	2	0.523	69824	69087	inactive
19	CG6660	1	-0.00119	44548	47926	inactive
20	Ir10a	1	-0.882	56774	53952	inactive
21	Ir10a	2	-0.235	37777	39593	inactive
22	Ir10a	3	-0.155	64285	62665	inactive

Quoted from above for reference:
no.	gene	reagent	mean Z score	ATP luminescence, replicate 1	ATP luminescence, replicate 2	outcome
7	Gr39a	3	-0.195	59980	51338	inactive
8	dome	1	-0.42	39130	41222	inactive
9	dome	2	0.189	54442	47686	inactive
10	dome	3	0.0347	51749	46588	inactive
11	Nrx-1	1	-0.232	42971	41736	inactive
12	Tsp42A	1	0.339	1.02e5	78187	inactive
13	Tsp42A	2	-0.372	51252	55659	inactive
14	Gr58c	1	0.446	60083	43914	inactive

More entries:
no.	gene	reagent	mean Z score	ATP luminescence, replicate 1	ATP luminescence, replicate 2	outcome
23	Fur2	1	0.0357	65691	67612	inactive
24	CG14691	1	-0.514	33233	49778	inactive
25	CG14691	2	0.808	76513	68092	inactive
26	Mgtor	1	0.0824	30435	33490	inactive
27	Mgtor	2	0.308	55321	66137	inactive
28	CG31100	1	0.269	36542	60967	inactive
29	CG31100	2	0.0354	39730	56191	inactive
30	Spase22-23	1	0.129	42525	48543	inactive
31	Or7a	1	-0.356	65142	55059	inactive
32	ppk26	1	1.02	94579	75606	inactive
33	ppk26	2	0.11	58488	59582	inactive
34	CG31358 + CG42505 + CG42504	1	-0.339	41685	43588	inactive
35	CG31358 + CG42505 + CG42504	2	-0.294	46640	39696	inactive
36	CG31358 + CG42505 + CG42504	3	-0.155	37049	55962	inactive
37	CG6974	1	-0.231	38816	53481	inactive
38	CG7881	1	-0.186	1.03e5	68778	inactive
39	CG7881	2	0.0639	54304	60117	inactive
40	CG31103	1	-0.138	54167	56482	inactive
41	CG44098	1	-0.24	69704	56842	inactive
42	CG44098	2	-0.351	53893	58111	inactive
43	CG44098	3	0.334	64833	68281	inactive
44	sns	1	2.33	1.24e5	1.19e5	active
45	sns	2	-0.215	39045	44394	inactive
46	Drl-2	1	0.124	43039	44822	inactive
47	Drl-2	2	-0.216	68624	65298	inactive
48	Drl-2	3	-0.099	46262	45345	inactive
49	Drl-2	4	0.268	48808	55539	inactive
50	Tnpo-SR	1	1.43	74506	78482	inactive
51	Tnpo-SR	2	1.04	56276	62038	inactive
52	Ctl1	1	1.04	92378	76976	inactive
53	Ctl1	2	0.0951	66737	30662	inactive
54	Arl6IP1	1	-0.311	37896	51389	inactive
55	Arl6IP1	2	-0.294	51681	43674	inactive
56	CG31523	1	0.161	68229	69213	inactive
57	CG31523	2	-0.344	56534	46366	inactive
58	Nhe2	1	0.747	38376	66411	inactive
59	Nhe2	2	0.273	54853	37913	inactive
60	stan	1	0.384	82585	82414	inactive
61	stan	2	-0.355	53704	52967	inactive
62	hec	1	0.845	82328	77731	inactive
63	hec	2	-0.401	56413	55882	inactive
64	CG15211	1	-0.951	49332	51250	inactive
65	CG15211	2	-0.783	45182	45165	inactive
66	hoe1	1	0.156	59466	57305	inactive
67	hoe1	2	-0.963	37656	37845	inactive
68	Tsp42En	1	-0.31	79120	67577	inactive
